# According to the supplement of paper PMC3334620:
# Over roughly 33,000 sequences, “E-score (-0.5 to 0.5)” has its median near -0.016; the highest 2% begin near 0.3. This is one part of the list.
# Target: T1, Yer184c (UniProt P39961)
# T1 sequence: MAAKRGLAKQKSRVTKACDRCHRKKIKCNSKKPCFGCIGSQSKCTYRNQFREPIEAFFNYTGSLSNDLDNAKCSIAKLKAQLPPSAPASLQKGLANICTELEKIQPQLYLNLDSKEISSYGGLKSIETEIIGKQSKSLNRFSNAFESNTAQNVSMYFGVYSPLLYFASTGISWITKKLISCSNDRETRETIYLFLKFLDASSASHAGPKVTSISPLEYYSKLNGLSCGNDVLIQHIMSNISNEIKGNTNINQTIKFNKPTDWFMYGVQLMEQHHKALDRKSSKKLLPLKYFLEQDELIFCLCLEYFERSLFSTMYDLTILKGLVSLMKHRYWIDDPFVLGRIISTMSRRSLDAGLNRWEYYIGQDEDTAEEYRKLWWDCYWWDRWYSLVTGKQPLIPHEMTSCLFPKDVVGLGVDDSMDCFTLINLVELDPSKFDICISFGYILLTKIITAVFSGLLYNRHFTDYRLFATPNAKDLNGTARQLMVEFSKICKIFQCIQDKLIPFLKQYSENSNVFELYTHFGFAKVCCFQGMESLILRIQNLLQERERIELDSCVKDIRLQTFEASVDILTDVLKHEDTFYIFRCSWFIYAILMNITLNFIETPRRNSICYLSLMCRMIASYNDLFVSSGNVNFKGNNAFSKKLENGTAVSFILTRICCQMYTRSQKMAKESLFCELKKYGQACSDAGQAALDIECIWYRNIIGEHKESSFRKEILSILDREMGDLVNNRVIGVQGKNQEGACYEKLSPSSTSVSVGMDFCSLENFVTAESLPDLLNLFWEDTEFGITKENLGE
# Assay: PBM E-score (8-mer binding enrichment) (E-score (-0.5 to 0.5)); higher = stronger / more preferred TF binding
# Details: protein concentration: 100 nM; construct: GST-full length
# Method in brief: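 The E-score, a modified Wilcoxon-Mann-Whitney statistic, was computed by the Universal PBM Analysis Suite for every ungapped eight-base word pooled with its reverse complement. Scans behind it were normalised with masliner after bound GST-tagged yeast transcription factors were detected with fluorescent anti-GST. The proteins, at about 100-200 nM, had been applied to universal all-10-mer Agilent arrays made double-stranded by primer extension.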
row,Sequence,PBM E-score
1,AGCGGTGA,-0.0103
2,AGTAATAA,0.105
3,ACTAAGAG,-0.14
4,AGGCCGTA,0.178
5,CGCATGCA,0.116
6,AGAAAGAC,-0.132
7,GAAATGCC,0.067
8,GATTTCGA,0.042
9,CAGAACAG,-0.127
10,CATTGGGG,-0.304
11,CAGGGTTC,-0.1
12,ATCCATTC,0.16
13,AAAGCGAA,0.0331
14,AGTCTAGG,-0.144
15,AGGGGCAA,-0.244
16,AAGTGATG,-0.07
17,AGTGTTGA,0.0919
18,GTAAGACA,0.0606
19,TATTTAAA,0.218
20,AATTGCAC,0.0043
21,AGTTCCAA,0.122
22,GGTATTAC,0.233
23,GGGACCGA,0.158
24,CGTACTGC,-0.122

row,Sequence,PBM E-score
1,AATACCCA,0.0211
2,AAACAAGG,-0.096
3,ACTTCTCG,0.17
4,AACTCGTC,-0.0807
5,GGATTCGA,-0.0994
6,AAGTTGAG,0.0313
7,AAGACTGT,-0.0493
8,CAGGTCGA,-0.00477
9,ACGAAACC,0.219
10,GCACCGAA,0.174
11,AATTCGAG,-0.108
12,CCATTTAA,0.206
13,AGAAAAAA,0.203
14,ATCCTTGG,0.017
15,CACTCAGC,-0.0362
16,CAGGGGGC,-0.284
17,AGCGGTAG,-0.141
18,GCCCGCGA,-0.00435
19,GTCCTGGA,-0.241
20,AAAATCGG,0.15
21,ACCTGTAT,-0.169
22,CCGCGTTC,0.147
23,GACGATGA,0.0507
24,CGCGATGC,-0.146

# 2 entries drawn at random from those above:
row,Sequence,PBM E-score
23,GACGATGA,0.0507
8,CAGGTCGA,-0.00477

# (cont.)

row,Sequence,PBM E-score
1,CTTCTCCA,-0.106
2,CATATCGG,0.0288
3,AGTTCCCA,0.0448
4,AGGGTCCG,0.00576
5,ACAGGTGA,-0.193
6,CAGGACGC,-0.0689
7,TGTGTCAA,-0.115
8,CAAATATA,0.0999
9,GTTTGAGA,-0.169
10,CAGTACCG,0.0817
11,TAAGCAAA,-0.0338
12,GCAACGGA,0.294
13,GAAAAATC,0.162
14,GACGTTTA,-0.00627
15,CTGTCTAC,-0.0237
16,AGGATGTA,-0.114
17,ACTGGCCG,-0.118
18,ATAGAAGC,0.171
19,CGTAGAAC,0.0148
20,AACTCACC,-0.101
21,ACAATCTC,-0.06
22,GGCCCCCA,-0.3
23,ACGACCCC,-0.136
24,CTACTAGC,0.143

row,Sequence,PBM E-score
1,ACAACAGT,-0.0303
2,AACGGCAT,0.247
3,CAGATGAC,-0.263
4,ACTCAAAC,0.158
5,GACTTACC,-0.0786
6,CTCAGCGC,-0.0245
7,AACAATTG,-0.0709
8,GGGGGGTA,-0.265
9,CGCACAAC,-0.12
10,TCTTCACA,0.0179
11,ATCTCCGA,0.36
12,ATGAAGCC,0.287
13,GTGATATA,-0.153
14,CACCTAGC,-0.187
15,ACTGAGTC,-0.00384
16,GGCCGCGA,-0.0617
17,AGGAATTG,-0.0124
18,ATCCCGGG,0.36
19,CCGAGTAG,0.177
20,CAGCTGAA,-0.00121
21,GATGCTGA,-0.203
22,ACGGAAAG,0.231

# For reference, some entries already given.
row,Sequence,PBM E-score
14,CACCTAGC,-0.187
15,ACTGAGTC,-0.00384
